{"source": "PubChem BioAssay AID1259308 (NCATS, 2017)", "assay": "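Genes whose loss raises luciferase production in HEK293 cells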 (primary screen)", "system": "human HEK293 embryonic kidney cells stably expressing firefly luciferase (HEK-CMV-Luc2-Hygro)", "reagents": "single siRNA against human genes, 0.8 pmol siRNA per well", "timing": "72 h", "detection": "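Luciferase light (ONE-Glo) measured on one replicate plate set and viability (CellTiter-Glo) on the other, scaled to a negative control siRNA, with robust z-scores and luciferase per cell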", "scale": "total luciferase, z-score: higher = more reporter protein produced", "rule for the call": "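An siRNA counts as active if its total luciferase robust z-score exceeds 3; genes with two or more such siRNAs out of three were retested with fresh siRNAs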", "calls": "active = raised luciferase; inactive = no rise", "note": "The whole screen tested about 59,000 reagents; this is a part drawn at random. About 1,510 of them (2.6%) were called active. 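Calls use total luciferase alone and ignore viability, so some active siRNAs may act by altering cell number.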 Reagents against one gene are numbered here. Not all columns of the deposit are shown."}
{"target gene": "KRT13", "reagent no.": 1, "total luciferase, z-score": -1.09, "Outcome": "inactive"}
{"target gene": "KRT13", "reagent no.": 2, "total luciferase, z-score": -2.91, "Outcome": "inactive"}
{"target gene": "KRT13", "reagent no.": 3, "total luciferase, z-score": 1.12, "Outcome": "inactive"}
{"target gene": "CDH11", "reagent no.": 1, "total luciferase, z-score": -0.3, "Outcome": "inactive"}
{"target gene": "CDH11", "reagent no.": 2, "total luciferase, z-score": -0.0373, "Outcome": "inactive"}
{"target gene": "CDH11", "reagent no.": 3, "total luciferase, z-score": -0.74, "Outcome": "inactive"}
{"target gene": "PHKA1P1", "reagent no.": 1, "total luciferase, z-score": -2.24, "Outcome": "inactive"}
{"target gene": "PHKA1P1", "reagent no.": 2, "total luciferase, z-score": 1.35, "Outcome": "inactive"}
{"target gene": "PHKA1P1", "reagent no.": 3, "total luciferase, z-score": -0.00951, "Outcome": "inactive"}
{"target gene": "NEUROG3", "reagent no.": 1, "total luciferase, z-score": -0.0327, "Outcome": "inactive"}
{"target gene": "NEUROG3", "reagent no.": 2, "total luciferase, z-score": -0.285, "Outcome": "inactive"}
{"target gene": "NEUROG3", "reagent no.": 3, "total luciferase, z-score": 1.24, "Outcome": "inactive"}
